PubChem BioAssay AID1671195 | Yale University | 2021
Screen: 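Regulators of LDL receptor activity judged by labelled LDL uptake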 (primary screen). System: human Huh7 hepatoma cells. Knock-down reagent: siRNA pool against human genes, 18 nM. Timing: about 2 to 2.5 days of knockdown, then 8 h LDL uptake. Conditions: DiI-labelled LDL at 30 µg/ml for 8 h, in lipoprotein-deficient serum medium. Read-out: 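Per-cell DiI-LDL intensity by automated imaging; well means scaled to the plate median and given as a robust z-score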. Scale: robust z-score: higher = more LDL uptake after knockdown. Hit rule: 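Active when two or more replicates show a robust z-score above 2 or below -2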.
This is one part, drawn at random, of about 22,000 reagents. Over the whole deposit, about 1,510 (6.9%) are marked active. 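Active includes knockdowns raising or lowering LDL uptake; positive z-scores mean more uptake, negative mean less.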 Reagents against one gene are numbered here. No sequences are given here.

| robust z-score, replicate 1 | robust z-score, replicate 2 | robust z-score, replicate 3 | activity call | gene knocked down | reagent no. |
| --- | --- | --- | --- | --- | --- |
| -0.447 | -0.282 | -1.1 | inactive | ENKD1 (enkurin domain containing 1) | 1 |
| 0.953 | 0.743 | 0.839 | inactive | LOC440115 (retired record) | 1 |
| -1.21 | -1.25 | -1.76 | inactive | TTC22 (tetratricopeptide repeat domain 22) | 1 |
| 0.317 | 0.925 | 0.916 | inactive | TTC6 (tetratricopeptide repeat domain 6) | 1 |
| -0.516 | -0.674 | -0.551 | inactive | TTC6 (tetratricopeptide repeat domain 6) | 2 |
| -0.0386 | -0.78 | 0.173 | inactive | DCTPP1 (dCTP pyrophosphatase 1) | 1 |
| -0.782 | -0.738 | -0.714 | inactive | HM13 (histocompatibility minor 13) | 1 |
| -0.196 | 0.683 | 0.381 | inactive | ALDOAP1 (ALDOA pseudogene 1) | 1 |
| -0.952 | -0.938 | -0.817 | inactive | ZNF546 (zinc finger protein 546) | 1 |
| 2.97 | 3.58 | 6.61 | active | STX12 (syntaxin 12) | 1 |
| 0.693 | 0.255 | 0.793 | inactive | CDKN2A (cyclin dependent kinase inhibitor 2A) | 1 |
| 0.617 | 0.192 | 0.435 | inactive | BIN1 (bridging integrator 1) | 1 |
| -0.75 | -1 | -1.23 | inactive | TIMM29 (translocase of inner mitochondrial membrane 29) | 1 |
| -1.85 | -1.37 | -1.34 | inactive | ZBED10P (zinc finger BED-type containing 10, pseudogene) | 1 |
| 0.919 | -0.654 | -0.00348 | inactive | HTR1B (5-hydroxytryptamine receptor 1B) | 1 |
| -0.698 | -0.671 | -0.375 | inactive | TAS1R1 (taste 1 receptor member 1) | 1 |
| 0.925 | 0.982 | 1.05 | inactive | LOC440604 (retired record) | 1 |
| 2.5 | 2.17 | 2.39 | active | LRRN4CL (LRRN4 C-terminal like) | 1 |
| -0.139 | 0.0222 | 0.84 | inactive | CDC50B (cell division cycle 50 P4-ATPase accessory subunit B) | 1 |
| -1.42 | -1.5 | -1.34 | inactive | LOC389352 (retired record) | 1 |
| 0.104 | -0.377 | 0.0173 | inactive | IL10RB (interleukin 10 receptor subunit beta) | 1 |
| -1.26 | -1.45 | -1.57 | inactive | PPDPFL | 1 |
| -1.29 | -1.34 | -1.79 | inactive | ICMT (isoprenylcysteine carboxyl methyltransferase) | 1 |
| 0.209 | 0.309 | 0.256 | inactive | SERHL2 (serine hydrolase like 2) | 1 |
| -1.82 | -0.687 | 1.53 | inactive | PUM3 (pumilio RNA binding family member 3) | 1 |
| -1.22 | -0.815 | -1.04 | inactive | FUBP1 (far upstream element binding protein 1) | 1 |
| 0.619 | 0.599 | -0.36 | inactive | MTUS1 (microtubule associated scaffold protein 1) | 1 |
| 0.0253 | 0.84 | 0.362 | inactive | PLEKHN1 (pleckstrin homology domain containing N1) | 1 |
| -0.58 | 0.11 | -0.199 | inactive | LUZP1 (leucine zipper protein 1) | 1 |
| 1.68 | 0.726 | 1.55 | inactive | PTCD3 (pentatricopeptide repeat domain 3) | 1 |
| 2.1 | 2.17 | 2.45 | active | DEFB121 (defensin beta 121) | 1 |
| -0.764 | -1.14 | -1.04 | inactive | AP2A1 (adaptor related protein complex 2 subunit alpha 1) | 1 |
| 0.399 | -0.69 | 0.184 | inactive | ECM1 (extracellular matrix protein 1) | 1 |
| 1.24 | 0.989 | 0.456 | inactive | SULT4A1 (sulfotransferase family 4A member 1) | 1 |
| -0.067 | 1.04 | -0.526 | inactive | HDAC6 (histone deacetylase 6) | 1 |
| 0.817 | -0.577 | -0.751 | inactive | SLIT2 (slit guidance ligand 2) | 1 |
| -0.862 | 1.24 | 0.919 | inactive | RPS17P6 (ribosomal protein S17 pseudogene 6) | 1 |
| 2.38 | 2.82 | 0.932 | active | CEP350 (centrosomal protein 350) | 1 |
| -2.38 | -0.47 | -2.46 | active | PRM1 (protamine 1) | 1 |
| -0.615 | -0.872 | -0.401 | inactive | AIMP2 | 1 |
| 0.19 | -0.302 | -0.579 | inactive | RBFA (ribosome binding factor A) | 1 |
| -0.158 | 0.615 | -0.507 | inactive | MAP3K13 (mitogen-activated protein kinase kinase kinase 13) | 1 |
| -1.33 | -2.08 | -1.16 | inactive | HORMAD2 (HORMA domain containing 2) | 1 |
| -0.994 | -0.0389 | 0.964 | inactive | RIC8B (RIC8 guanine nucleotide exchange factor B) | 1 |
| -0.592 | -1.15 | -0.853 | inactive | PRKRIP1 (PRKR interacting protein 1) | 1 |
| -0.382 | -1.53 | -0.284 | inactive | STK17A (serine/threonine kinase 17a) | 1 |
| 0.12 | 0.418 | 0.00716 | inactive | KTI12 (KTI12 chromatin associated homolog) | 1 |
| -0.883 | -1.12 | -0.747 | inactive | TSSK4 (testis specific serine kinase 4) | 1 |
| -0.853 | -0.564 | -0.86 | inactive | ZNF541 (zinc finger protein 541) | 1 |
| -0.0852 | -1.05 | -0.419 | inactive | GPRC5C (G protein-coupled receptor class C group 5 member C) | 1 |
| -2.39 | -0.208 | 0.0811 | inactive | PCTP (phosphatidylcholine transfer protein) | 1 |
| 3.26 | 3.64 | 3.3 | active | SPEM1 (spermatid maturation 1) | 1 |
| -1.91 | -2.26 | -1.65 | active | LOC389405 (retired record) | 1 |
| 0.441 | 0.11 | -0.122 | inactive | LOC390975 (retired record) | 1 |
| -0.353 | -0.0134 | -0.242 | inactive | YPEL3 (yippee like 3) | 1 |
| 0.036 | -1.44 | 0.59 | inactive | CDCA4 (cell division cycle associated 4) | 1 |
| -0.706 | -1.9 | -0.475 | inactive | FAM81B (family with sequence similarity 81 member B) | 1 |
| -1.25 | -1.39 | -1.43 | inactive | EOGT (EGF domain specific O-linked N-acetylglucosamine transferase) | 1 |
| -2.19 | -1.13 | -0.3 | inactive | MAGEC3 (MAGE family member C3) | 1 |
| -0.357 | -0.428 | 0.0223 | inactive | SPIRE2 (spire type actin nucleation factor 2) | 1 |
| -0.516 | -0.0112 | -0.517 | inactive | VPS4A (vacuolar protein sorting 4 homolog A) | 1 |
| 0.36 | 0.0621 | -0.0499 | inactive | LOC388002 (retired record) | 1 |
| -1.69 | -0.419 | -1.27 | inactive | SAAL1 (serum amyloid A like 1) | 1 |
| -0.2 | -0.493 | -0.334 | inactive | TNFSF11 (TNF superfamily member 11) | 1 |
| 0.214 | 1.1 | 0.304 | inactive | SRRM1 (serine and arginine repetitive matrix 1) | 1 |
| -0.316 | -0.435 | -0.181 | inactive | HSPB6 (heat shock protein family B (small) member 6) | 1 |
| 0.946 | 2.99 | 1.67 | inactive | IRF4 (interferon regulatory factor 4) | 1 |
| -1.07 | -1.14 | -1.13 | inactive | OR6K3 (olfactory receptor family 6 subfamily K member 3) | 1 |
| -1.99 | -1.57 | -1.75 | inactive | RNF112 (ring finger protein 112) | 1 |
| -1.02 | 0.329 | -0.474 | inactive | MARCHF8 (membrane associated ring-CH-type finger 8) | 1 |
| 0.881 | -0.756 | -0.373 | inactive | NMS (neuromedin S) | 1 |
| 3.7 | 4.06 | 4.55 | active | FAM217B (family with sequence similarity 217 member B) | 1 |
| -0.662 | -0.218 | -0.0856 | inactive | LRRC43 (leucine rich repeat containing 43) | 1 |
| 0.905 | -0.0362 | 0.492 | inactive | CASK (calcium/calmodulin dependent serine protein kinase) | 1 |
| -0.634 | -0.657 | -1.02 | inactive | LOC441020 (retired record) | 1 |
| 0.914 | 1.11 | 0.712 | inactive | LOC400647 (retired record) | 1 |
| -0.266 | 0.144 | -0.363 | inactive | ZNF587 (zinc finger protein 587) | 1 |
| 0.167 | -0.0923 | -0.0366 | inactive | PUS7L (pseudouridine synthase 7 like) | 1 |
| 0.0577 | -0.682 | -0.175 | inactive | CHPF2 (chondroitin polymerizing factor 2) | 1 |
| 0.273 | -0.568 | -0.132 | inactive | SUFU (SUFU negative regulator of hedgehog signaling) | 1 |
| -0.967 | -1.49 | -1.5 | inactive | CARD18 (caspase recruitment domain family member 18) | 1 |
| -0.197 | 0.332 | -1.79 | inactive | VGLL4 (vestigial like family member 4) | 1 |
| -1.26 | -1.51 | -1.17 | inactive | IDH3G | 1 |
| 0.0902 | -0.718 | -0.484 | inactive | ATXN3L (ataxin 3 like) | 1 |
| -0.186 | -0.106 | -0.51 | inactive | FER1L6-AS2 (FER1L6 antisense RNA 2) | 1 |
| 0.175 | 0.256 | -0.0257 | inactive | ZNF670 (zinc finger protein 670) | 1 |
| -0.00556 | -0.533 | -0.296 | inactive | LOC400832 (retired record) | 1 |

Just “robust z-score, replicate 2” (3 entries from above):
RBFA (ribosome binding factor A)	-0.302
MAP3K13 (mitogen-activated protein kinase kinase kinase 13)	0.615
HORMAD2 (HORMA domain containing 2)	-2.08
